Among the data in paper PMC9481931 are binding values, retold here.

Amino acid sequences for entries named in this document (tags omitted).
UniProt A1ZAW0: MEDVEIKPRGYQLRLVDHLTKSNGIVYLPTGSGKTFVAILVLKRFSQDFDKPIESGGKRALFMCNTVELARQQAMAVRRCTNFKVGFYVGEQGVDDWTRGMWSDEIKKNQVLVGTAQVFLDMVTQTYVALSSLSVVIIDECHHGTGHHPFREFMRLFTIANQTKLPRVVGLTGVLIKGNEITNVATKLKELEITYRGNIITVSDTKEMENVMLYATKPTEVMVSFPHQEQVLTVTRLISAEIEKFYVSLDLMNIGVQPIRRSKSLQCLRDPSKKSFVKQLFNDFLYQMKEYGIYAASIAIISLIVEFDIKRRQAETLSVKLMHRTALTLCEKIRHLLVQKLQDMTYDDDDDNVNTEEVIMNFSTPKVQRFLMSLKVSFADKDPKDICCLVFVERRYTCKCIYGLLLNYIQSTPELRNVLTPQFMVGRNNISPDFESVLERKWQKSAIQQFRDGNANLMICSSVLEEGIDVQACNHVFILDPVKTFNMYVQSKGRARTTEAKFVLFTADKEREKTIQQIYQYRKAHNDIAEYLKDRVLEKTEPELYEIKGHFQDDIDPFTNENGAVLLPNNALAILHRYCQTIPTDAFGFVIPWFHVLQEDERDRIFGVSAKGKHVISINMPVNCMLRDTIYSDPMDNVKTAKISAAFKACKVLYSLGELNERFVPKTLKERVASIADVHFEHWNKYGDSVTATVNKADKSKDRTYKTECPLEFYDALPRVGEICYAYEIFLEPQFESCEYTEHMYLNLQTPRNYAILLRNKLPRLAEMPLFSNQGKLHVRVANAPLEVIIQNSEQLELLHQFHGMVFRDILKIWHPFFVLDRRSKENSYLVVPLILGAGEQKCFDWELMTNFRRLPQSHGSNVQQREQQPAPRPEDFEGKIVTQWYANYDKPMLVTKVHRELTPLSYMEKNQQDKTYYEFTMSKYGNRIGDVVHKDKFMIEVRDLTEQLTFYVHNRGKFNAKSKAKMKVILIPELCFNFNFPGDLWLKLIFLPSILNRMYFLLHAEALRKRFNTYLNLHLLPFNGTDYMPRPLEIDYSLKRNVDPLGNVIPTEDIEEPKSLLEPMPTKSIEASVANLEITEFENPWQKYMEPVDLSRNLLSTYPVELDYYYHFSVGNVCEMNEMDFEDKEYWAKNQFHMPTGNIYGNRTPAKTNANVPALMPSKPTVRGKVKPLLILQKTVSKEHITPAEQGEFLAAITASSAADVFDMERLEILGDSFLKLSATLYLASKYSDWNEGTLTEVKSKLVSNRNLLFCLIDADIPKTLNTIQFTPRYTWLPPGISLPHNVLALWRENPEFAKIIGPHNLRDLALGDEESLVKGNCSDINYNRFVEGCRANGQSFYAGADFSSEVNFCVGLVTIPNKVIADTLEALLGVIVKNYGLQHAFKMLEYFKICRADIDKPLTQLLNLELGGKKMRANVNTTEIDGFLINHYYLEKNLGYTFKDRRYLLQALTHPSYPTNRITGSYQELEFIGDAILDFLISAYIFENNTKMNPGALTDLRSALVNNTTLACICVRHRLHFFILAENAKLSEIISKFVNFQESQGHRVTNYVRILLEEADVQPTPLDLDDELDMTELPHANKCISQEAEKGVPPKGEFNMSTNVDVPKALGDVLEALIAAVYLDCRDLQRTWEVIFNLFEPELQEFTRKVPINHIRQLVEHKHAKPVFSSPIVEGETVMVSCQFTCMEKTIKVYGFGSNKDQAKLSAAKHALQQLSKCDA
UniProt Q9NFU0: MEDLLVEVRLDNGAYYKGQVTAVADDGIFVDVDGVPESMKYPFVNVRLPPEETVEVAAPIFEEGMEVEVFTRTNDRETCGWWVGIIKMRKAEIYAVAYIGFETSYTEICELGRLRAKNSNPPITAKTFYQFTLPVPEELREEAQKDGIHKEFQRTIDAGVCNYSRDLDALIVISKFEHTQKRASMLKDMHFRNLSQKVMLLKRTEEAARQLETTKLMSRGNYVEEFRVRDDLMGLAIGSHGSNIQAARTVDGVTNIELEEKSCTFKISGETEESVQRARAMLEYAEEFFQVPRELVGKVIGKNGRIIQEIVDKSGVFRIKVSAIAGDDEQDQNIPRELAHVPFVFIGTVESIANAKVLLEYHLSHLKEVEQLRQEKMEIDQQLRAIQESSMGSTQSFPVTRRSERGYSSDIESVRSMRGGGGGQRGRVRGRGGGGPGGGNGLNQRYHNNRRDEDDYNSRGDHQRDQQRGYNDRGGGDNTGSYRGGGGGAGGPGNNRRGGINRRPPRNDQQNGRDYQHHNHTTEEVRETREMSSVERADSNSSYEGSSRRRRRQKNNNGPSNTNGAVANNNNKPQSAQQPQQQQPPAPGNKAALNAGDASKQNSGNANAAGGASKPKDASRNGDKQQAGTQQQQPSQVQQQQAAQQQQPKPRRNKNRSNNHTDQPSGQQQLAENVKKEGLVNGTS
UniProt Q9VCU9: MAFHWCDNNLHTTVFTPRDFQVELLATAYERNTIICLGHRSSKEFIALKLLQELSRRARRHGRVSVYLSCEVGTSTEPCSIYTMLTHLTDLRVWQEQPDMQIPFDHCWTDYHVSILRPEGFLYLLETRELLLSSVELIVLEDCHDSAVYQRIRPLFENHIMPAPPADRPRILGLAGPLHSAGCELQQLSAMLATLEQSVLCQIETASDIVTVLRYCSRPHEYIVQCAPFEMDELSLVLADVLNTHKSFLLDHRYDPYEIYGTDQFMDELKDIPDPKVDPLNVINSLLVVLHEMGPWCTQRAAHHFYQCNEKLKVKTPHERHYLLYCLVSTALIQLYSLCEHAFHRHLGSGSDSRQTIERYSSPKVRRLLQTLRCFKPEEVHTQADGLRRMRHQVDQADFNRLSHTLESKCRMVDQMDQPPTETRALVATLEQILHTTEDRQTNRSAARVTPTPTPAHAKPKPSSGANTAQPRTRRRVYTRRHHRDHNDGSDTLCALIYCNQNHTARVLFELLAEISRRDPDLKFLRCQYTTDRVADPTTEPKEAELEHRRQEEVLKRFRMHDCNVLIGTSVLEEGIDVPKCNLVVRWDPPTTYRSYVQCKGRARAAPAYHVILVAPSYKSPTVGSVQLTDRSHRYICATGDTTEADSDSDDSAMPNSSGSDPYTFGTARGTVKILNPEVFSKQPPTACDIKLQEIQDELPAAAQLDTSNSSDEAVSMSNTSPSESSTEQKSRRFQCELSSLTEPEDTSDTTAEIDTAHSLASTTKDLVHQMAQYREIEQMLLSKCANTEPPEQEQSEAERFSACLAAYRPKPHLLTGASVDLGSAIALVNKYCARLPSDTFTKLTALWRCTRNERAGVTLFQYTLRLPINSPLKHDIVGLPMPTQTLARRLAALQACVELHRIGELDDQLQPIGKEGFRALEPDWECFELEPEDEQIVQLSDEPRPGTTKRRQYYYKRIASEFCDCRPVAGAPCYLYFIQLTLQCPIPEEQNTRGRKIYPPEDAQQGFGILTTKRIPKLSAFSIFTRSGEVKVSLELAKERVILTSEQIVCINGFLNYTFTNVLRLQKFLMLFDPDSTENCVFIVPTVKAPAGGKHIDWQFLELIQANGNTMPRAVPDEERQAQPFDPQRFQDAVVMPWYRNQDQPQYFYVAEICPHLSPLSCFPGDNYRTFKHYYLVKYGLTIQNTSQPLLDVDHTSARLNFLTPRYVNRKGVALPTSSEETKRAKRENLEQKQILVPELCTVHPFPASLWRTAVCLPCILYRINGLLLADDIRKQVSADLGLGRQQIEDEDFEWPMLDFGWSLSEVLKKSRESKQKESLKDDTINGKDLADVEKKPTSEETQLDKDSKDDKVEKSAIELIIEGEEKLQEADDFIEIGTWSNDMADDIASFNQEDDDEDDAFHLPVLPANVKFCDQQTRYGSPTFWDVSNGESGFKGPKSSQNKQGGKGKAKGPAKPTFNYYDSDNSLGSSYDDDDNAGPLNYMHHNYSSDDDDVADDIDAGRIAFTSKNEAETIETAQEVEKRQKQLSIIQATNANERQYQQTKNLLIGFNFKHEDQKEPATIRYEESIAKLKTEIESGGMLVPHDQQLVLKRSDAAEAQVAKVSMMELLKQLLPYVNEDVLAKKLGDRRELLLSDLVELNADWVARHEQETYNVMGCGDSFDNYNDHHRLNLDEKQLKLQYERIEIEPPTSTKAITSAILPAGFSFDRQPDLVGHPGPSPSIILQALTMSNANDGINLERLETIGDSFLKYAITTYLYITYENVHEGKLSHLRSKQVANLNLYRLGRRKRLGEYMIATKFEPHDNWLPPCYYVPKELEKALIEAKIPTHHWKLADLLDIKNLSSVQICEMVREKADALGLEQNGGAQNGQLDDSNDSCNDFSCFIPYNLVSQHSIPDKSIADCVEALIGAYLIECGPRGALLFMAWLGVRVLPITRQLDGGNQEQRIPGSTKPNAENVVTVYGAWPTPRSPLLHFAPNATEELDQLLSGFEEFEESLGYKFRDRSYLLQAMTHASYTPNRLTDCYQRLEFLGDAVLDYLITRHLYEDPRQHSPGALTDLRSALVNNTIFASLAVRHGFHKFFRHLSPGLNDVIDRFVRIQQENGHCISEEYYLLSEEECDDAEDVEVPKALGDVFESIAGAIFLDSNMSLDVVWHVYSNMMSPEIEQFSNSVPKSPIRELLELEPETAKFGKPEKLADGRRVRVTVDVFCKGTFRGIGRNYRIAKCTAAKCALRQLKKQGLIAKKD

The target of assay [1] is Dicer-2 (Drosophila melanogaster (endogenous in embryo extracts)) (UniProt A1ZAW0). The experiment in a line: affinity purification with mass spectrometry; anti-Dicer-2 IP from early embryo extract, with or without RNase I, LC-MSMS; scored by SAINTexpress and Top3 against Dicer-2 null extract and against IgG; high-confidence = enriched over both controls.
For assay [2] the target is unchanged. The assay is described as above. The source holds these as a separate data set.

Read-outs that look alike come from different tables or passages of the source. These are yes or no findings as the source states them, for the method shown. In cells and extracts the contact can be indirect. Here binding means that the protein was enriched with, or labelled near, the bait; the list need not be complete.

Turning to Fmr1 (from UniProt Q9NFU0 1-684), in assay [1], the binding result was “binds”.

For the molecule “Dicer-1 (from UniProt Q9VCU9 1-2249) (enzyme)”, the binding entry in assay [1] is reported as “binds”.

B1: oskar (protein, UniProt P25158 1-606)
chain: MAAVTSEFPSKPISYTSTNTSAKTYYLKSVKKRVTTCFQQLRDKLQSSGSFRKSSSSCLNQIFVRSDFSACGERFRKIFKSARKTELPELWKVPLVAHELTSRQSSQQLQVVARLFSSTQISTKEITYNSNSNTSENNMTIIESNYISVREEYPDIDSEVRAILLSHAQNGITISSIKSEYRKLTGNPFPLHDNVTDFLLTIPNVTAECSESGKRIFNLKASLKNGHLLDMVLNQKERTSDYSSGAPSLENIPRAPPRYWKNPFKRRALSQLNTSPRTVPKITDEKTKDIATRPVSLHQMANEAAESNWCYQDNWKHLNNFYQQASVNAPKMPVPINIYSPDAPEEPINLAPPGHQPSCRTQSQKTEPTENRHLGIFVHPFNGMNIMKRRHEMTPTPTILTSGTYNDSLLTINSDYDAYLLDFPLMGDDFMLYLARMELKCRFRRHERVLQSGLCVSGLTINGARNRLKRVQLPEGTQIIVNIGSVDIMRGKPLVQIEHDFRLLIKEMHNMRLVPILTNLAPLGNYCHDKVLCDKIYRFNKFIRSECCHLKVIDIHSCLINERGVVRFDCFQASPRQVTGSKEPYLFWNKIGRQRVLQVIETSLEY
Regarding B1, in assay [2], the binding result is “binds”.

B2: Rasputin (protein, UniProt Q9VFT4 1-690)
chain: MVMDATQSQQPSPQSVGREFVRQYYTLLNKAPNHLHRFYNHNSSYIHGESKLVVGQREIHNRIQQLNFNDCHAKISQVDAQATLGNGVVVQVTGELSNDGQPMRRFTQTFVLAAQSPKKYYVHNDIFRYQDLYIEDEQDGESRSENDEEHDVQVVGGTVDQAVQVAGDVVAQQPQQQQAPPQPQAQVVVPQQVAPVAAGGAAPQQIFYPLPAGAAAGRPVAVLPPAPQAAAVPLPAQFTVPPPQPIQNGVVSHEELQQQQVLVPPSVSPLVQQQQPTGTPVLPIVPVPSAGFQQSPLVAPQLIQQQQQQQPAQLPPQQQQQQQPIQQQQPLQQQQQPLAEPEEVEVAPRQQKPPTPVEDFKTIHEQQQQEKYEAAKQQQNEPKTYANLFKSTSSSPSGFVNAALQQQQQLQQQQQQQQSISSNTYNSSSATSGGGNGSQVSYSTTASSYNNSNGNSRLDNGGPLPQRNNSIRNNKGDFEQRRSSNTQQFGDNQQLFLGNIPHHASEDDLREIFSRFGNVLELRILSKAGNKVPPGMRSPLNYGFITYDDPEAVQKCLANCPLYFPENSPDGQKLNVEEKKPRVRNDMVPRQQIGGNNLNNNMGRLGGNNGPQSRPMGNNNGSGGGMMRNNAGGNNLRQGGGGGNGAPRLGGGGGFGQRQDNRTGGGNNQSNGPLRGAGNGQSGGGNYGRR
In the case of B2, the binding result in assay [2] is “binds”.

B3: Ataxin-2 (protein, UniProt Q8SWR8 1-1084)
chain: MNNNSKRKTRPTGGGASGGISRYNSNDNSLRPTNNKAGAGGGNGGAAVRPSAQGVYNNTFFMHSATALVGSVVEVRLRSGNIYEGVFRTFSGNFDIALELPACIKSKNLPEEGKVPKHIIFPADTVVTIVAKDFDSQYATAGAFQTDGAISDKCNGARPDEKELEPWDSGANGDIDIELDSAANGWDPNEMFRKNENTFGVTSTFDDSLASYTVPLDKGDSLEFKEAEAKAEKLAAEIENNPTCRDRLDLENGDEEALFAAVERPSTEQDQRGDRGDRERNDRDREREERDRDRDRDRGNKPRGAGDFQLRETMSSDRYITKQTRSITGPQLSHVGMSSQGSGRDRDTRGDGSMMMQSGGGSGQGGSTQSTAALMLAGGLKGVGPAPSANASADSSSKYSGGSMVKRKTVPQGGKVMRNNVPTGGSNVSVSQGGNGNSVGQNKGGYQPSMGMPSQYSYQGNSQIMHGSSQYRNQSHMGGANKLNGDSNANTNKPLPQRQMRQYQGSQSNSSLNYGGEPQSLGKPVHGSHGGHPGQNSNSPPLQTAGPQQQQQQQQQQQQQQQQQQPPQQQQHQNIQPQGQNTQPARQVRTRDNQMQELRQFGQDFQLAPSNTSPPQQQQQQQQQQQQHQVQQQQQRALQQSASPPQQQQQQQQQQQHVVLHQVPQTHLHQAALSQPHYVPQQQPQQAPLPQQQHVPHHMQQKAQQQQLVETQHQHVQKQHQSQPQVQQPPPQLLQDPSQQPLPIYHTMPPPQTSPVVVTSPVLLEQPPPQPMPVVQQQQTQQLATPKPEVSPAPPSSNTTTPTGIASTPTAGVIASAGSEKTTPAAPTPTSNSATVPTGTAATAGGATGTTPVVKKHVLNPSAKPFTPRGPSTPNPSRPHTPQTPVPMTNIYTTTGGHVPPAANQPIYVMQPQHPFPPQTHPQAGQPPRLRRSNYPPMAASQMHVSASAATGQPLITAGPIPQFIQYGHAPHQQQFQSHTYAPMQMRVYPDQPQQLQFMTQTPQSTTPSPGQPHQQFHPPPQPSPAGGGPQPAFTPPTQAATYQLMCVHPQSLLANHYFPPPTPQHPQQNQQQYQIVMQQHQPQ
For B3, in assay [2], the binding entry is given as “binds”.

B4: R2D2 (protein, UniProt Q9VLW8 1-311)
chain: MDNKSAVSALQEFCARTQINLPTYSFIPGEDGGYVCKVELLEIEALGNGRSKRDAKHLAASNILRKIQLLPGIHGLMKDSTVGDLDEELTNLNRDMVKELRDYCVRREMPLPCIEVVQQSGTPSAPEFVACCSVASIVRYGKSDKKKDARQRAAIEMLALISSNSDNLRPDQMQVASTSKLKVVDMEESMEELEALRRKKFTTYWELKEAGSVDHTGMRLCDRHNYFKNFYPTLKKEAIEAINSDEYESSKDKAMDVMSSLKITPKISEVESSSLVPLLSVELNCAFDVVLMAKETDIYDHIIDYFRTMLI
For the molecule B4, in assay [2], the binding result was “binds”.
